Assays:
[1] = Residual hydrazine at commercial boiler site (FIG. 3); details: carbohydrazide to hydrazine ratio 1:2
[2] = initial O2 40 ppb; 227-239° F.
Description: A second more extensive group of potential oxygen scavengers were compared, again using a small laboratory boiler and oxygen saturated feed water containing sodium hydroxide. […] The hydrazine salts among this group are no less toxic than hydrazine and therefore were eliminated from further study. […] In addition, the carbohydrazide was preferred because it is a solid at room temperature and could therefore be used in dry formulations.
INITIAL SCREENING AT 227-239° F.

With `NNC(=O)NN` [Carbohydrazide, N, N' diaminourea] the “Residual hydrazine levels vs straight hydrazine treatments” value ([1]; 300° F., 360° F. and 450° F. sample points) was “lower than those for straight hydrazine treatments”, the “Residual hydrazine levels, corrected for 79.9% purity” value ([1]; regardless of temperature) was “approximately half those observed for hydrazine” and the “Final N2 H4” value [2] was 33 ppb.
With `O=CNNC=O` [Diformohydrazide] the “Final N2 H4” value [2] was “trace”.
For `COC(=O)NNC(=O)OC` [Dimethyldihydrazodicarboxylate], the “Final N2 H4” value [2] was “trace”.
With `O=C(O)NNC(=O)O` [Disodiumdihydrazodicarboxylate] the “Final N2 H4” value [2] was 241 ppb.
With `NNC=O` [Formohydrazide] the “Final N2 H4” value [2] was 30 ppb.
In the case of `NN.O=S(=O)(O)O` [Hydrazine sulfate, Hydrazinium sulfate, reference compound], the “Final N2 H4” value [2] is reported as 435 ppb.
With `NN` [Hydrazine, hydrazine, reference compound] the “Final N2 H4” value [2] was 398 ppb.
In the case of Di (methylformal)diazine, the “Final N2 H4” value [2] is reported as 244 ppb.

Source: US4269717A, “Boiler additives for oxygen scavenging” (priority 1980, dated 1981)
